mCherry and percent effect data for 13 compounds are collected here from the supplement of paper PMC8256030.

Test [1] concerns SARS-CoV-2 -1 PRF reporter mCherry-FSE-GFP(-1). Kind of test: mCherry (red) intensity as percent of control; higher = higher upstream reporter expression. The settings on record: 10 µM; 24 h; HEK293T.
Test [2] shares this test system. Kind of test: percent effect, decrease of GFP/mCherry ratio (-1 PRF reporter) relative to controls; higher = stronger frameshift inhibition. The following applies: 10 µM; 24 h; HEK293T.

Several values for one entry are separate records, joined by “and”; a condition that tells them apart may be missing. Equal values may be shown once. The list shows a part of the results. Repeats in this data set agree poorly, so a single value says little.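 HEK293T cells were given each compound shortly before transfection with a reporter in which red mCherry is followed by the SARS-CoV-2 frameshift element and then GFP in the −1 frame, so GFP appears only after frameshifting.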

In test [1], `CN1CCC[C@@H]1Cc1c[nH]c2ccc(CCS(=O)(=O)c3ccccc3)cc12` registered a mCherry of 87.3%. Also, the percent effect in test [2] is -5.88%.
Take `CCCc1nc(C(C)(C)O)c(C(=O)O)n1Cc1ccc(-c2ccccc2-c2nnn[nH]2)cc1` [olmesartan]: the mCherry in test [1] is 140% and 128%. Besides, in test [2], the percent effect is 0.825% and 0.592%.
As for `c1ccc(C2CN3CCSC3=N2)cc1` (stereo unspecified) [tetramisole], in test [1], the mCherry came out at 101%. In test [2], the percent effect is -1.78%.
Taken in the same sequence, the figures for `CN1CCN(C2=Nc3cc(Cl)ccc3Nc3ccccc32)CC1` [clozapine] were 113% and 2.33%.
Taken in the same sequence, the figures for `OC1C(O)C(O)C(O)C(O)C1O` (stereo unspecified) were 106% and -0.758%.
Taken in the same sequence, the figures for `CS(=O)(=O)c1ccc2c(c1)N(CCCN1CCC(C(N)=O)CC1)c1ccccc1S2` [metopimazine] were 69.3% and 1.51%.
With `C[C@]12C=CC(=O)C=C1CC[C@@H]1[C@@H]2[C@@H](O)C[C@@]2(C)[C@H]1CC[C@]2(O)C(=O)CO` [prednisolone], the mCherry in test [1] was 93.7% and 97.1% and 111%. For the same compound, the percent effect in test [2] was -6.87% and 0.104% and -5.13%.
In the case of `Cn1cc([S+](C)[O-])c(=O)c2ccc(F)cc21` (stereo unspecified) [flosequinan], the mCherry in test [1] was 107%. The percent effect in test [2] was -6.63%.
On the same counts, the results for `CN1CCN(CCCN2c3ccccc3Sc3ccc(S(=O)(=O)N(C)C)cc32)CC1` [thioproperazine] are 114% and -2.12%.
On the same counts, the results for `O=C(O)Cc1nn(Cc2ccc(Br)cc2F)c(=O)c2ccccc12` [ponalrestat] are 95.9% and -1.69%.
On the same counts, the results for `Nc1nc(=O)c2nc(CNc3ccc(C(=O)N[C@@H](CCC(=O)O)C(=O)O)cc3)cnc2[nH]1` [folic acid] are 76.5% and -10.7%.
`O=C(O)CCC(=O)Nc1ccc(S(=O)(=O)Nc2nccs2)cc1` [succinylsulfathiazole] showed a mCherry in test [1] of 97.5%. In test [2], the percent effect was -2.47%.
Taken in the same sequence, the figures for `CCC1(CC)O[C@@H]2C[C@H]3[C@@H]4CCC5=CC(=O)C=C[C@]5(C)[C@@]4(F)[C@@H](O)C[C@]3(C)[C@]2(C(=O)CO)O1` [amcinafal] were 79.6% and -5.73%.
